{"source": "PubChem BioAssay AID504791 (Drosophila RNAi Screening Center, 2011)", "test": "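Genes whose knock-down strengthens or weakens small-RNA reporter silencing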 (primary screen)", "system": "Drosophila S2-derived reporter cells", "knock-down reagent": "long dsRNA against Drosophila genes, about 150-250 ng dsRNA per well (siRNA assay); about 80-120 ng (miRNA assay)", "duration": "about 5 days (siRNA assay); about 4 days (miRNA assay)", "challenge": "copper sulfate induction of reporters: 25 µM (siRNA assay); 200 mM stated (miRNA assay), 1-2 days before reading", "detection": "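Per-well ratio of Renilla over firefly light, expressed relative to that plate's average ratio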", "units": "stable assay Renilla, run 1 in luminescence; stable assay firefly, run 1 in luminescence", "rule for the call": "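First-pass picks had plate-scaled ratios over 1.5 for the siRNA assay, over 1.6 for the miRNA assay, or under 0.6; two distinct dsRNAs had to score alike on retest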", "note": "In all, the deposit lists about 23,000 reagents; below is a random part of those with a known target gene and a result. In the full data, 199 (0.86%) are marked active. 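Plate-scaled ratios behind the calls are not deposited; printed light signals are raw; many rows marked increased or decreased are still called inactive.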 Reagents against one gene are numbered here. Names joined by + are all predicted targets of the reagent. Not stated in the record: the direction of the score."}
{"target gene": "Andorra", "reagent": 1, "stable assay Renilla, run 1": 4651, "stable assay firefly, run 1": 3.44e5, "call": "inactive"}
{"target gene": "CG33270", "reagent": 1, "stable assay Renilla, run 1": 5480, "stable assay firefly, run 1": 4.00e5, "call": "inactive"}
{"target gene": "Ir11a (Ionotropic receptor 11a)", "reagent": 1, "stable assay Renilla, run 1": 5363, "stable assay firefly, run 1": 4.91e5, "call": "inactive"}
{"target gene": "TwdlQ (TweedleQ)", "reagent": 1, "stable assay Renilla, run 1": 5760, "stable assay firefly, run 1": 3.64e5, "call": "inactive"}
{"target gene": "TwdlQ (TweedleQ)", "reagent": 2, "stable assay Renilla, run 1": 3691, "stable assay firefly, run 1": 3.24e5, "call": "inactive"}
{"target gene": "Tom70 (Translocase of outer membrane 70)", "reagent": 1, "stable assay Renilla, run 1": 5347, "stable assay firefly, run 1": 4.57e5, "call": "inactive"}
{"target gene": "Nelf-A (Negative elongation factor A)", "reagent": 1, "stable assay Renilla, run 1": 8444, "stable assay firefly, run 1": 3.95e5, "call": "inactive"}
{"target gene": "Cp18 (Chorion protein 18)", "reagent": 1, "stable assay Renilla, run 1": 5494, "stable assay firefly, run 1": 3.55e5, "call": "inactive"}
{"target gene": "AQP (aquaporin)", "reagent": 1, "stable assay Renilla, run 1": 5754, "stable assay firefly, run 1": 3.08e5, "call": "inactive"}
{"target gene": "CG1077", "reagent": 1, "stable assay Renilla, run 1": 5311, "stable assay firefly, run 1": 6.12e5, "call": "inactive"}
{"target gene": "Fatp (retired record)", "reagent": 1, "stable assay Renilla, run 1": 7496, "stable assay firefly, run 1": 6.59e5, "call": "inactive"}
{"target gene": "CG6567 + CG42394", "reagent": 1, "stable assay Renilla, run 1": 9742, "stable assay firefly, run 1": 6.25e5, "call": "inactive"}
{"target gene": "SRPK (SR Protein Kinase)", "reagent": 1, "stable assay Renilla, run 1": 13039, "stable assay firefly, run 1": 4.81e5, "call": "inactive"}

The list goes on, starting with the last 2 of the part before.
{"target gene": "CG6567 + CG42394", "reagent": 1, "stable assay Renilla, run 1": 9742, "stable assay firefly, run 1": 6.25e5, "call": "inactive"}
{"target gene": "SRPK (SR Protein Kinase)", "reagent": 1, "stable assay Renilla, run 1": 13039, "stable assay firefly, run 1": 4.81e5, "call": "inactive"}
{"target gene": "CG13640", "reagent": 1, "stable assay Renilla, run 1": 7322, "stable assay firefly, run 1": 4.44e5, "call": "inactive"}
{"target gene": "Tengl3 (Testis EndoG-Like 3)", "reagent": 1, "stable assay Renilla, run 1": 9913, "stable assay firefly, run 1": 6.91e5, "call": "inactive"}
{"target gene": "Mks1 (Meckel syndrome, type 1)", "reagent": 1, "stable assay Renilla, run 1": 6654, "stable assay firefly, run 1": 6.67e5, "call": "inactive"}
{"target gene": "rl (rolled)", "reagent": 1, "stable assay Renilla, run 1": 5551, "stable assay firefly, run 1": 3.77e5, "call": "inactive"}
{"target gene": "rl (rolled)", "reagent": 2, "stable assay Renilla, run 1": 3947, "stable assay firefly, run 1": 2.40e5, "call": "inactive"}
{"target gene": "rl (rolled)", "reagent": 3, "stable assay Renilla, run 1": 7687, "stable assay firefly, run 1": 3.85e5, "call": "inactive"}
{"target gene": "Dys (Dystrophin)", "reagent": 1, "stable assay Renilla, run 1": 4783, "stable assay firefly, run 1": 4.64e5, "call": "inactive"}
{"target gene": "Dys (Dystrophin)", "reagent": 2, "stable assay Renilla, run 1": 3131, "stable assay firefly, run 1": 2.79e5, "call": "inactive"}
{"target gene": "Dys (Dystrophin)", "reagent": 3, "stable assay Renilla, run 1": 6996, "stable assay firefly, run 1": 2.61e5, "call": "inactive"}
{"target gene": "Dys (Dystrophin)", "reagent": 4, "stable assay Renilla, run 1": 6787, "stable assay firefly, run 1": 2.86e5, "call": "inactive"}
{"target gene": "Dys (Dystrophin)", "reagent": 5, "stable assay Renilla, run 1": 7348, "stable assay firefly, run 1": 4.10e5, "call": "inactive"}
{"target gene": "Dys (Dystrophin)", "reagent": 6, "stable assay Renilla, run 1": 6434, "stable assay firefly, run 1": 3.06e5, "call": "inactive"}
{"target gene": "Dys (Dystrophin)", "reagent": 7, "stable assay Renilla, run 1": 6931, "stable assay firefly, run 1": 3.04e5, "call": "inactive"}
{"target gene": "Prosalpha5 (Proteasome alpha5 subunit)", "reagent": 1, "stable siRNA reporter change": "reporter ratio raised past the hit cutoff", "stable assay Renilla, run 1": 15722, "stable assay firefly, run 1": 2.29e5, "call": "active"}
{"target gene": "CG13707", "reagent": 1, "stable assay Renilla, run 1": 6614, "stable assay firefly, run 1": 5.32e5, "call": "inactive"}
